Test [1] addresses His-tagged human NAMPT (human) (UniProt P43490). As to the kind of experiment: co-IP; HEK293T cells co-transfected for 24 h with His-NAMPT and HA-NEDD4; cleared RIPA lysates incubated with His-tag magnetic bead conjugate at 4 °C; immunoblot.
Test [2] concerns the target NEDD4 E3 ligase (neural precursor cell expressed developmentally downregulated 4) (human (endogenous in THP-1)) (UniProt P46934). Briefly: co-IP; NEDD4 antibody and protein G Dynabeads, cleared RIPA lysates of WT THP-1 cells, basal and after LPS; immunoblot for GSDMD and Hsp90. For orientation: In western blotting, separated proteins are transferred to a membrane and probed.

Amino acid sequences for entries named in this document (tags omitted).
UniProt P43490: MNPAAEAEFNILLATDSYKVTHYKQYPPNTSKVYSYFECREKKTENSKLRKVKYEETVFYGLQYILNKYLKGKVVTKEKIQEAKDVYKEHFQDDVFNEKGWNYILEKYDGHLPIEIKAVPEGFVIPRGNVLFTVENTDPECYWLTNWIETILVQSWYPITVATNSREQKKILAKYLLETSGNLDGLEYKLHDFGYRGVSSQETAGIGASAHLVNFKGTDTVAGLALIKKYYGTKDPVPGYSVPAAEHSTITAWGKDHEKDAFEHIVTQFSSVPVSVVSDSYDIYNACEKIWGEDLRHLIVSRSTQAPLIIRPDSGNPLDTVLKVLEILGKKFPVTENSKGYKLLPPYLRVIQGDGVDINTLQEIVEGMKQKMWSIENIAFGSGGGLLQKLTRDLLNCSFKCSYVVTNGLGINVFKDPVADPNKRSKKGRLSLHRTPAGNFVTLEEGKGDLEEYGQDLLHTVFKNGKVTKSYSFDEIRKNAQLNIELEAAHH
UniProt P46934: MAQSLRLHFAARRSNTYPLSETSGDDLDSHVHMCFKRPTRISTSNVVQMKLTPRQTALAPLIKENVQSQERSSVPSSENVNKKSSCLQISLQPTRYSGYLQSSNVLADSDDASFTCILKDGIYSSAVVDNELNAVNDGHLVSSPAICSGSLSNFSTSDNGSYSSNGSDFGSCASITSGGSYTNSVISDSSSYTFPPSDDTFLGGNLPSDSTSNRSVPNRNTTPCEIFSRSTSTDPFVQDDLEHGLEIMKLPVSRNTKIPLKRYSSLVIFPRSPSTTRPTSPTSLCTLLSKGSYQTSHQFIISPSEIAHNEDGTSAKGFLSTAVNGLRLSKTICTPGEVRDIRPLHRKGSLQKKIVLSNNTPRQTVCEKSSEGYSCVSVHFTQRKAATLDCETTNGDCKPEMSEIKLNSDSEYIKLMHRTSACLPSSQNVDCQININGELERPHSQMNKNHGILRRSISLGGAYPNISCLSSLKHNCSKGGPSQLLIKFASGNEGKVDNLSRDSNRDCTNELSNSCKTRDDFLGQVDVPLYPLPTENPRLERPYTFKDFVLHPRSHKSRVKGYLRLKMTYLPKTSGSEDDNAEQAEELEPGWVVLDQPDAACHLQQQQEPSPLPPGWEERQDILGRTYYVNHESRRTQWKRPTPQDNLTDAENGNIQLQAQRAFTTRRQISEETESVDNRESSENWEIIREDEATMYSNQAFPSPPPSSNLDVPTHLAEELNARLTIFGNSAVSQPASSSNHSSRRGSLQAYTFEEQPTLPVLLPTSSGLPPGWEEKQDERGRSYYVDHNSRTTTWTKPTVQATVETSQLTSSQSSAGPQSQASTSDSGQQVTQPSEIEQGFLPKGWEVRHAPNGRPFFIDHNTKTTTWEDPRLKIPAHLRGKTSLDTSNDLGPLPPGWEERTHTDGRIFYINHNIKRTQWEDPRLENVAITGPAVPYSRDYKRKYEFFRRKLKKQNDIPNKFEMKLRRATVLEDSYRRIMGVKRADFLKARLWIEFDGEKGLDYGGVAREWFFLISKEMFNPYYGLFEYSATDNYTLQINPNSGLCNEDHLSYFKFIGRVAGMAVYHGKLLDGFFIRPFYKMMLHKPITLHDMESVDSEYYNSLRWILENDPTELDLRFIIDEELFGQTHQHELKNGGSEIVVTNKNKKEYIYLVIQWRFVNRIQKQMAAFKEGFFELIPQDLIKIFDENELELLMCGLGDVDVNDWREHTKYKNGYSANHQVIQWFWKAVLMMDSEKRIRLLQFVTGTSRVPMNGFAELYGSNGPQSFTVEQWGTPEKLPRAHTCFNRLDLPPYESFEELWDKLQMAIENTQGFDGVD

No constants are given. Whether binding was seen depends on the method and setting. In cells and extracts the contact can be indirect. Some binding calls cover weakened binding; strength is not graded here.

On to “HA-tagged human NEDD4 (from UniProt P46934 1-1319) (enzyme)”, for which, in test [1], the binding entry is “binds”.

B1: Gasdermin D (GSDMD), intact (protein, UniProt P57764 1-484)
chain: MGSAFERVVRRVVQELDHGGEFIPVTSLQSSTGFQPYCLVVRKPSSSWFWKPRYKCVNLSIKDILEPDAAEPDVQRGRSFHFYDAMDGQIQGSVELAAPGQAKIAGGAAVSDSSSTSMNVYSLSVDPNTWQTLLHERHLRQPEHKVLQQLRSRGDNVYVVTEVLQTQKEVEVTRTHKREGSGRFSLPGATCLQGEGQGHLSQKKTVTIPSGSTLAFRVAQLVIDSDLDVLLFPDKKQRTFQPPATGHKRSTSEGAWPQLPSGLSMMRCLHNFLTDGVPAEGAFTEDFQGLRAEVETISKELELLDRELCQLLLEGLEGVLRDQLALRALEEALEQGQSLGPVEPLDGPAGAVLECLVLSSGMLVPELAIPVVYLLGALTMLSETQHKLLAEALESQTLLGPLELVGSLLEQSAPWQERSTMSLPPGLLGNSWGEGAPAWVLLDECGLELGEDTPHVCWEPQAQGRMCALYASLALLSGLSQEPH
Take B1: in test [2], the binding entry was “binds”.

The values are drawn from PMC11956250.
